Data published in patent publication US20050144671A1 (ARIZONA BD OF REGENTS BEHALF OF UNIV OF ARIZONA, published 2005).
No constants are given. Whether binding was seen depends on the method and setting. For part of these data: Binding seen in cells or lysates may run through a third protein. Some binding calls cover weakened binding; strength is not graded here. For part of these data: Sequences can lack the tags named with a protein. Each block holds one binder with its values, some of them ahead of it.

Legend:
[1] = molecular target: T1, C-terminal region (corresponding to 266-494 amino acids) of Ice1 cloned in pAS2 vector (bait vector) (Arabidopsis) (UniProt Q9LSE2); test: yeast two-hybrid
T1 sequence: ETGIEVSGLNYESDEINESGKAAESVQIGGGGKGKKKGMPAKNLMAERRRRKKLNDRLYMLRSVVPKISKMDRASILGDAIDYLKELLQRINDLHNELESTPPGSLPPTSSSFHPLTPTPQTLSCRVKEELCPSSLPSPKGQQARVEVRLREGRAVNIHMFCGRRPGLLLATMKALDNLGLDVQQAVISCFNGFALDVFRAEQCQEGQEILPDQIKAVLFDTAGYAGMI

[2] = molecular target: T2, Region corresponding to 358-494 amino acids of Ice1, deletion of the C-terminal portion cloned in pAS2 vector (bait) (Arabidopsis) (UniProt Q9LSE2); test: yeast two-hybrid
T2 sequence: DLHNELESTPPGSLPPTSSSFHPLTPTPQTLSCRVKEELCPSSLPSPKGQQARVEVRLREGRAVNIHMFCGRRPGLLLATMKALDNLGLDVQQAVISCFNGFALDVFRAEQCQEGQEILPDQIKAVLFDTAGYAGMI

[3] = molecular target: T1, C-terminal region (corresponding to 266-494 amino acids) of Ice1 cloned in pAS2 vector (bait vector) (Arabidopsis); test: yeast two-hybrid, beta-Gal activity
[4] = molecular target: T2, Region corresponding to 358-494 amino acids of Ice1, deletion of the C-terminal portion cloned in pAS2 vector (bait) (Arabidopsis); test: yeast two-hybrid, beta-Gal activity
[5] = molecular target: T3, S-tag-Ice1 (full-length Ice1 cloned in pCITE4a, in vitro translated) (Arabidopsis) (UniProt Q9LSE2); test: in vitro GST pull-down, autoradiography
T3 sequence: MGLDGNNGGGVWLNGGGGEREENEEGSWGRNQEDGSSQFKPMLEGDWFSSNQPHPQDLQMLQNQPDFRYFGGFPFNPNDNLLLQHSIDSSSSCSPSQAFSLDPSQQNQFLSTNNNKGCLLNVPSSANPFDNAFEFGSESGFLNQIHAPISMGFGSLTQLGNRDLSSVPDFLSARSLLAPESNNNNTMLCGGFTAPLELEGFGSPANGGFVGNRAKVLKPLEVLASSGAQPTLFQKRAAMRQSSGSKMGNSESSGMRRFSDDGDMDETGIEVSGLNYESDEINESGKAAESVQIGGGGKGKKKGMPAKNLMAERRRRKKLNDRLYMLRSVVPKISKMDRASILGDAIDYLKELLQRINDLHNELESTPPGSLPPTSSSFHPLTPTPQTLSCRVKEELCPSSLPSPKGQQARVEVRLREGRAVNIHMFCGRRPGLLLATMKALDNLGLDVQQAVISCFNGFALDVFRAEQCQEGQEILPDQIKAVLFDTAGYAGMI

[6] = molecular target: T3, S-tag-Ice1 (full-length Ice1 cloned in pCITE4a, in vitro translated) (Arabidopsis); test: in vitro GST pull-down
[7] = molecular target: T4, 35S-labeled Snow1 (full-length snow1 in pGEM-T easy, in vitro transcribed and translated) (Arabidopsis) (UniProt Q9LTC4); test: in vitro S-tag pull-down, autoradiography
T4 sequence (chain, 35S-methionine label): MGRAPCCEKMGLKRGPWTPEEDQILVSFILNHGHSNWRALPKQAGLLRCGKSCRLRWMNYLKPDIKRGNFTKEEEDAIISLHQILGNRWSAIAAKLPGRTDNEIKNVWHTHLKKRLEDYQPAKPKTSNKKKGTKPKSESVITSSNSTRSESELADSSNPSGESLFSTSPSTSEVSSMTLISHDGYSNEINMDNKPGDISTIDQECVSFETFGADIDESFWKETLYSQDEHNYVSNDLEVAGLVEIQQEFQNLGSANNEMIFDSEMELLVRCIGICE

[8] = molecular target: T4, 35S-labeled Snow1 (full-length snow1 in pGEM-T easy, in vitro transcribed and translated) (Arabidopsis); test: in vitro S-tag pull-down
HA-Snow1 (Arabidopsis) = molecular target: T5, HA-Snow1 (Arabidopsis) (UniProt Q9LTC4); test: co-immunoprecipitation from Arabidopsis protoplasts with anti c-Myc antibodies, blot probed with anti HA antibodies
T5 sequence: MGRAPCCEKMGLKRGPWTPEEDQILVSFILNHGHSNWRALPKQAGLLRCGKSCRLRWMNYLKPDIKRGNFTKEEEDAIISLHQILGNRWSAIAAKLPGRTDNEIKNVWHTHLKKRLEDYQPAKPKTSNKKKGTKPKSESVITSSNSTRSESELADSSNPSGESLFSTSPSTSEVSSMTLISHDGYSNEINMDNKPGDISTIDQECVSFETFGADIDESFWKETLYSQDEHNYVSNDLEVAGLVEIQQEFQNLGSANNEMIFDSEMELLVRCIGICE

B1: Full-length Snow1 cloned in pACT2 vector (prey vector) (protein, not shown: large carriers)
chain: MGRAPCCEKMGLKRGPWTPEEDQILVSFILNHGHSNWRALPKQAGLLRCGKSCRLRWMNYLKPDIKRGNFTKEEEDAIISLHQILGNRWSAIAAKLPGRTDNEIKNVWHTHLKKRLEDYQPAKPKTSNKKKGTKPKSESVITSSNSTRSESELADSSNPSGESLFSTSPSTSEVSSMTLISHDGYSNEINMDNKPGDISTIDQECVSFETFGADIDESFWKETLYSQDEHNYVSNDLEVAGLVEIQQEFQNLGSANNEMIFDSEMELLVRCIGICE
binding [1]: binds
binding [2]: binds
binding [3]: binds
binding [4]: binds

B2: GST-fused Snow1 (protein, not shown: a dimerising Fc or GST)
chain: MGRAPCCEKMGLKRGPWTPEEDQILVSFILNHGHSNWRALPKQAGLLRCGKSCRLRWMNYLKPDIKRGNFTKEEEDAIISLHQILGNRWSAIAAKLPGRTDNEIKNVWHTHLKKRLEDYQPAKPKTSNKKKGTKPKSESVITSSNSTRSESELADSSNPSGESLFSTSPSTSEVSSMTLISHDGYSNEINMDNKPGDISTIDQECVSFETFGADIDESFWKETLYSQDEHNYVSNDLEVAGLVEIQQEFQNLGSANNEMIFDSEMELLVRCIGICE
binding [5]: binds
binding [6]: binds

Second part, the binder after the results:

binding [7]: binds
binding [8]: binds
B3: S-tag-Ice1 (full-length Ice1 cloned in pCITE4a, in vitro translated) (protein, not shown: small tags and cut ends)
chain: MGLDGNNGGGVWLNGGGGEREENEEGSWGRNQEDGSSQFKPMLEGDWFSSNQPHPQDLQMLQNQPDFRYFGGFPFNPNDNLLLQHSIDSSSSCSPSQAFSLDPSQQNQFLSTNNNKGCLLNVPSSANPFDNAFEFGSESGFLNQIHAPISMGFGSLTQLGNRDLSSVPDFLSARSLLAPESNNNNTMLCGGFTAPLELEGFGSPANGGFVGNRAKVLKPLEVLASSGAQPTLFQKRAAMRQSSGSKMGNSESSGMRRFSDDGDMDETGIEVSGLNYESDEINESGKAAESVQIGGGGKGKKKGMPAKNLMAERRRRKKLNDRLYMLRSVVPKISKMDRASILGDAIDYLKELLQRINDLHNELESTPPGSLPPTSSSFHPLTPTPQTLSCRVKEELCPSSLPSPKGQQARVEVRLREGRAVNIHMFCGRRPGLLLATMKALDNLGLDVQQAVISCFNGFALDVFRAEQCQEGQEILPDQIKAVLFDTAGYAGMI

binding (HA-Snow1 (Arabidopsis)): binds
B4: Myc-Ice1 (protein, not shown: small tags and cut ends)
chain: MGLDGNNGGGVWLNGGGGEREENEEGSWGRNQEDGSSQFKPMLEGDWFSSNQPHPQDLQMLQNQPDFRYFGGFPFNPNDNLLLQHSIDSSSSCSPSQAFSLDPSQQNQFLSTNNNKGCLLNVPSSANPFDNAFEFGSESGFLNQIHAPISMGFGSLTQLGNRDLSSVPDFLSARSLLAPESNNNNTMLCGGFTAPLELEGFGSPANGGFVGNRAKVLKPLEVLASSGAQPTLFQKRAAMRQSSGSKMGNSESSGMRRFSDDGDMDETGIEVSGLNYESDEINESGKAAESVQIGGGGKGKKKGMPAKNLMAERRRRKKLNDRLYMLRSVVPKISKMDRASILGDAIDYLKELLQRINDLHNELESTPPGSLPPTSSSFHPLTPTPQTLSCRVKEELCPSSLPSPKGQQARVEVRLREGRAVNIHMFCGRRPGLLLATMKALDNLGLDVQQAVISCFNGFALDVFRAEQCQEGQEILPDQIKAVLFDTAGYAGMI
